The target in the assay is T1, APETALA3 (AP3) fused to GFP (Arabidopsis), P35632.
T1 chain: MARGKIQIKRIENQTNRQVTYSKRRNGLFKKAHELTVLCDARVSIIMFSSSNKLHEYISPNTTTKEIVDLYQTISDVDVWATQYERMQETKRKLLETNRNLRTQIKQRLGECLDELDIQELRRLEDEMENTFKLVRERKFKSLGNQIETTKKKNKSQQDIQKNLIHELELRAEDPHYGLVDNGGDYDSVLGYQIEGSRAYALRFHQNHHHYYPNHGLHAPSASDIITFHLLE
Description: co-IP. The following applies: remark: other sources report otherwise.

These are yes or no findings as the source states them, for the method shown. Binding seen in cells or lysates may run through a third protein. Some results given as binding are weak or reduced against the parent protein; the word gives no strength. Sequences can lack the tags named with a protein.

B1: … (PI) fused to TurboID and 3xMyc, P48007 1-208 (protein)
chain: MGRGKIEIKRIENANNRVVTFSKRRNGLVKKAKEITVLCDAKVALIIFASNGKMIDYCCPSMDLGAMLDQYQKLSGKKLWDAKHENLSNEIDRIKKENDSLQLELRHLKGEDIQSLNLKNLMAVEHAIEHGLDKVRDHQMEILISKRRNEKMMAEEQRQLTFQLQQQEMAIASNARGMMMRDHDGQFGYRVQPIQPNLQEKIMSLVID
modifications: here or on the partner: likely auto-biotinylated (sites not given); biotinylated by PI-TurboID (sites not given)
Take B1: the binding result is reported as “binds”.

The record behind these values is article doi:10.1101/2021.10.15.464533.
